PMC11990775
These are yes or no findings as the source states them, for the method shown. In cells and extracts the contact can be indirect. Some binding calls cover weakened binding; strength is not graded here.

Chains of the proteins cited; added tags and fusions are not shown.
UniProt Q9HC16: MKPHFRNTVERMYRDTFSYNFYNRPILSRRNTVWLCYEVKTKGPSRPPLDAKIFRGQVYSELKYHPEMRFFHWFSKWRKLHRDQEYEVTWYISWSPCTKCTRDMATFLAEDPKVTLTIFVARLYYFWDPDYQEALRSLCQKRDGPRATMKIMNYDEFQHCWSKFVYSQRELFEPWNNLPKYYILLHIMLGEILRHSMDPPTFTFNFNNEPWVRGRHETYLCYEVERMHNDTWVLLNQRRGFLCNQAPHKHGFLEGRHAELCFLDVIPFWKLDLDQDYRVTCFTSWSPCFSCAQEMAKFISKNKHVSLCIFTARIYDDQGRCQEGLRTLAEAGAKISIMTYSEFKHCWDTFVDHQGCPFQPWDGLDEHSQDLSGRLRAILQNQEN
UniProt P67809: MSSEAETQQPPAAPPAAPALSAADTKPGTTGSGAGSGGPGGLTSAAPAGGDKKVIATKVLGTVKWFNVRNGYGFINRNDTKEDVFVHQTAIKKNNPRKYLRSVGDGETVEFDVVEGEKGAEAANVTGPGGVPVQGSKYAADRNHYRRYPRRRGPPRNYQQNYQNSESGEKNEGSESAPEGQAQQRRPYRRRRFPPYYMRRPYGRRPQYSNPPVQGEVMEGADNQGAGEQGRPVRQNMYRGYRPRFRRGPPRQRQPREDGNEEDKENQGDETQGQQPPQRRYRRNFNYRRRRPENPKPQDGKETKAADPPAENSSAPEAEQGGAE

What was measured:
[1] = biological target: FLAG-tagged human APOBEC3G (human) (UniProt Q9HC16); experiment: condition: only lysates treated with RNase A (50 µg/ml, 37°C, 30 minutes) prior to immunoprecipitation; co-IP; as a2, but lysates incubated with RNase A (50 µg/ml) at 37°C for 30 minutes prior to immunoprecipitation
[2] = biological target: FLAG-tagged human APOBEC3G (human) (UniProt Q9HC16); experiment: co-IP; 293T cells over-expressing FLAG-tagged mAPOBEC3, hAPOBEC3G or RFP; endogenous partner detected by Western blot; no RNase A

Substance: Y-box binding protein 1 (YB1), endogenous in 293T cells (from UniProt P67809 1-324)
- binding [1]: no binding
- binding [2]: binds
